Here are results for 5 substances from publication PMC9151573.

Sequences of proteins named here, by UniProt entry; tags and fusion partners are left off.
UniProt Q00688: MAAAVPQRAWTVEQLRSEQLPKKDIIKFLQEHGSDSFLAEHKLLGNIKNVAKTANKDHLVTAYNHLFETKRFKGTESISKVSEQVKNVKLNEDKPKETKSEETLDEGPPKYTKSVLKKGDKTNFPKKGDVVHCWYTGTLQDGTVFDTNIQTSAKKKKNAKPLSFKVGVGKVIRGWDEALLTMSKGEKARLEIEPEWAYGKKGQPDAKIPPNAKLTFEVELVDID

No constants are given. Whether binding was seen depends on the method and setting. In cells and extracts the contact can be indirect. Here binding means that the protein was enriched with, or labelled near, the bait; the list need not be complete.

For assay [1], the target named is V5-p53-miniTurbo-NES (human) (UniProt P04637). As to the kind of experiment: proximity labelling; BioID: V5-p53-miniTurbo-NES in HepG2 p53KO cells, 2 h growth or starvation medium with 250 µM biotin; lysis in 8 M urea, streptavidin beads, LC-MS/MS; background control V5-EGFP-miniTurbo-NES.
Assay [2] addresses p53 (endogenous) (human (endogenous in HepG2)) (UniProt P04637). As to the kind of experiment: affinity purification with mass spectrometry; RIME: HepG2 wt cells 24 h in growth or starvation medium, cross-linked with 1% formaldehyde, nuclei isolated, endogenous p53 precipitated with DO1 antibody, IgG2A isotype control, on-bead digest, LC-MS/MS.

As to “FKBP prolyl isomerase 3 (FKBP3) (from UniProt Q00688 1-224) (enzyme)”, the binding result in assay [1] is “binds”.

Turning to “PPP1CC (from UniProt P36873 1-323) (enzyme)”, the binding result in assay [2] was “binds”.

For “Pyruvate kinase (PKM) (from UniProt P14618 1-531) (enzyme)”, in assay [1], the binding result is “binds”.

Turning to “Isocitrate dehydrogenase [NADP] cytoplasmic (IDH1) (from UniProt O75874 1-414) (enzyme)”, the binding result in assay [1] is “binds”.

Turning to “Cell division control protein 42 homolog (CDC42) (from UniProt P60953 1-191)”, the binding entry in assay [1] is given as “binds”.
